{"source": "PubChem BioAssay AID1259405 (NCATS, 2018)", "screen": "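Silenced genes that increase secreted GFP made by CHO cells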 (primary screen)", "system": "Chinese hamster CHO-K1 ovary cells with stable secreted eGFP expression", "reagents": "single siRNA against mouse genes, 0.8 pmol siRNA per well (2 µl of 400 nM stock)", "duration": "3 days", "detection": "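Per-well intracellular GFP measured by laser scanning cytometry, plus viability from ATP luminescence, each relative to plate median of non-targeting control wells, in %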", "scale": "GFP, % of control: higher = more GFP per well, higher productivity; viability (ATP), % of control: higher = more viable cells (more ATP)", "call rule": "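a knock-down is called active if GFP reaches 120% or more of non-targeting control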", "note": "The whole screen tested about 50,000 reagents; below is a random part of them. About 4,000 of all reagents (8%) were called active. 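Mouse siRNA library applied to hamster cells; one well for each siRNA.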 The numbers tell different reagents against one gene apart."}
{"gene symbol": "Il13ra1 (interleukin 13 receptor, alpha 1)", "siRNA no.": 1, "GFP, % of control": 74.5, "viability (ATP), % of control": 58.7, "outcome": "inactive"}
{"gene symbol": "Il13ra1 (interleukin 13 receptor, alpha 1)", "siRNA no.": 2, "GFP, % of control": 41.4, "viability (ATP), % of control": 26.9, "outcome": "inactive"}
{"gene symbol": "Il13ra1 (interleukin 13 receptor, alpha 1)", "siRNA no.": 3, "GFP, % of control": 71.8, "viability (ATP), % of control": 71.8, "outcome": "inactive"}
{"gene symbol": "Zfp282 (zinc finger protein 282)", "siRNA no.": 1, "GFP, % of control": 74.2, "viability (ATP), % of control": 69.2, "outcome": "inactive"}
{"gene symbol": "Zfp282 (zinc finger protein 282)", "siRNA no.": 2, "GFP, % of control": 95.5, "viability (ATP), % of control": 82.2, "outcome": "inactive"}
{"gene symbol": "Zfp282 (zinc finger protein 282)", "siRNA no.": 3, "GFP, % of control": 85.9, "viability (ATP), % of control": 91.1, "outcome": "inactive"}
{"gene symbol": "Ints13 (integrator complex subunit 13)", "siRNA no.": 1, "GFP, % of control": 34.9, "viability (ATP), % of control": 38.6, "outcome": "inactive"}
{"gene symbol": "Ints13 (integrator complex subunit 13)", "siRNA no.": 2, "GFP, % of control": 67.1, "viability (ATP), % of control": 96.8, "outcome": "inactive"}
{"gene symbol": "Ints13 (integrator complex subunit 13)", "siRNA no.": 3, "GFP, % of control": 70.1, "viability (ATP), % of control": 109, "outcome": "inactive"}
{"gene symbol": "B3galt4", "siRNA no.": 1, "GFP, % of control": 96.1, "viability (ATP), % of control": 105, "outcome": "inactive"}
{"gene symbol": "B3galt4", "siRNA no.": 2, "GFP, % of control": 113, "viability (ATP), % of control": 170, "outcome": "inactive"}
{"gene symbol": "B3galt4", "siRNA no.": 3, "GFP, % of control": 88.5, "viability (ATP), % of control": 108, "outcome": "inactive"}
{"gene symbol": "Thpo (thrombopoietin)", "siRNA no.": 1, "GFP, % of control": 68.8, "viability (ATP), % of control": 75.7, "outcome": "inactive"}
{"gene symbol": "Thpo (thrombopoietin)", "siRNA no.": 2, "GFP, % of control": 70.4, "viability (ATP), % of control": 77.8, "outcome": "inactive"}
{"gene symbol": "Thpo (thrombopoietin)", "siRNA no.": 3, "GFP, % of control": 95.3, "viability (ATP), % of control": 56.7, "outcome": "inactive"}
{"gene symbol": "1700028K03Rik (RIKEN cDNA 1700028K03 gene)", "siRNA no.": 1, "GFP, % of control": 99.3, "viability (ATP), % of control": 60, "outcome": "inactive"}
{"gene symbol": "1700028K03Rik (RIKEN cDNA 1700028K03 gene)", "siRNA no.": 2, "GFP, % of control": 56.2, "viability (ATP), % of control": 53.1, "outcome": "inactive"}
{"gene symbol": "1700028K03Rik (RIKEN cDNA 1700028K03 gene)", "siRNA no.": 3, "GFP, % of control": 93.2, "viability (ATP), % of control": 100, "outcome": "inactive"}
{"gene symbol": "Nxpe2 (neurexophilin and PC-esterase domain family, member 2)", "siRNA no.": 1, "GFP, % of control": 95.6, "viability (ATP), % of control": 95.7, "outcome": "inactive"}
{"gene symbol": "Nxpe2 (neurexophilin and PC-esterase domain family, member 2)", "siRNA no.": 2, "GFP, % of control": 58.8, "viability (ATP), % of control": 73.1, "outcome": "inactive"}
{"gene symbol": "Nxpe2 (neurexophilin and PC-esterase domain family, member 2)", "siRNA no.": 3, "GFP, % of control": 88.4, "viability (ATP), % of control": 82.7, "outcome": "inactive"}
{"gene symbol": "Nxf3 (nuclear RNA export factor 3)", "siRNA no.": 1, "GFP, % of control": 81.1, "viability (ATP), % of control": 83.1, "outcome": "inactive"}
{"gene symbol": "Nxf3 (nuclear RNA export factor 3)", "siRNA no.": 2, "GFP, % of control": 69.6, "viability (ATP), % of control": 94.6, "outcome": "inactive"}

Continued; the last 7 above are carried over.
{"gene symbol": "1700028K03Rik (RIKEN cDNA 1700028K03 gene)", "siRNA no.": 2, "GFP, % of control": 56.2, "viability (ATP), % of control": 53.1, "outcome": "inactive"}
{"gene symbol": "1700028K03Rik (RIKEN cDNA 1700028K03 gene)", "siRNA no.": 3, "GFP, % of control": 93.2, "viability (ATP), % of control": 100, "outcome": "inactive"}
{"gene symbol": "Nxpe2 (neurexophilin and PC-esterase domain family, member 2)", "siRNA no.": 1, "GFP, % of control": 95.6, "viability (ATP), % of control": 95.7, "outcome": "inactive"}
{"gene symbol": "Nxpe2 (neurexophilin and PC-esterase domain family, member 2)", "siRNA no.": 2, "GFP, % of control": 58.8, "viability (ATP), % of control": 73.1, "outcome": "inactive"}
{"gene symbol": "Nxpe2 (neurexophilin and PC-esterase domain family, member 2)", "siRNA no.": 3, "GFP, % of control": 88.4, "viability (ATP), % of control": 82.7, "outcome": "inactive"}
{"gene symbol": "Nxf3 (nuclear RNA export factor 3)", "siRNA no.": 1, "GFP, % of control": 81.1, "viability (ATP), % of control": 83.1, "outcome": "inactive"}
{"gene symbol": "Nxf3 (nuclear RNA export factor 3)", "siRNA no.": 2, "GFP, % of control": 69.6, "viability (ATP), % of control": 94.6, "outcome": "inactive"}
{"gene symbol": "Epyc (epiphycan)", "siRNA no.": 1, "GFP, % of control": 64.2, "viability (ATP), % of control": 31.5, "outcome": "inactive"}
{"gene symbol": "Epyc (epiphycan)", "siRNA no.": 2, "GFP, % of control": 77.8, "viability (ATP), % of control": 98.5, "outcome": "inactive"}
{"gene symbol": "Epyc (epiphycan)", "siRNA no.": 3, "GFP, % of control": 89, "viability (ATP), % of control": 100, "outcome": "inactive"}
{"gene symbol": "Kcnip2 (Kv channel-interacting protein 2)", "siRNA no.": 1, "GFP, % of control": 70.9, "viability (ATP), % of control": 87.7, "outcome": "inactive"}
{"gene symbol": "Kcnip2 (Kv channel-interacting protein 2)", "siRNA no.": 2, "GFP, % of control": 88.5, "viability (ATP), % of control": 52.2, "outcome": "inactive"}
{"gene symbol": "Ccdc28a (coiled-coil domain containing 28A)", "siRNA no.": 1, "GFP, % of control": 86.2, "viability (ATP), % of control": 78, "outcome": "inactive"}
{"gene symbol": "Ccdc28a (coiled-coil domain containing 28A)", "siRNA no.": 2, "GFP, % of control": 97.9, "viability (ATP), % of control": 79.6, "outcome": "inactive"}
{"gene symbol": "Ccdc28a (coiled-coil domain containing 28A)", "siRNA no.": 3, "GFP, % of control": 131, "viability (ATP), % of control": 146, "outcome": "active"}
{"gene symbol": "Ccdc22 (coiled-coil domain containing 22)", "siRNA no.": 1, "GFP, % of control": 73.6, "viability (ATP), % of control": 109, "outcome": "inactive"}
{"gene symbol": "Ccdc22 (coiled-coil domain containing 22)", "siRNA no.": 2, "GFP, % of control": 72.1, "viability (ATP), % of control": 47.9, "outcome": "inactive"}
{"gene symbol": "Ccdc22 (coiled-coil domain containing 22)", "siRNA no.": 3, "GFP, % of control": 63.1, "viability (ATP), % of control": 79.4, "outcome": "inactive"}
{"gene symbol": "Slc24a5", "siRNA no.": 1, "GFP, % of control": 65.8, "viability (ATP), % of control": 61.4, "outcome": "inactive"}
{"gene symbol": "Slc24a5", "siRNA no.": 2, "GFP, % of control": 85.4, "viability (ATP), % of control": 71.8, "outcome": "inactive"}
{"gene symbol": "Slc24a5", "siRNA no.": 3, "GFP, % of control": 83.7, "viability (ATP), % of control": 72.5, "outcome": "inactive"}
{"gene symbol": "Med19 (mediator complex subunit 19)", "siRNA no.": 1, "GFP, % of control": 112, "viability (ATP), % of control": 88.7, "outcome": "inactive"}
{"gene symbol": "Med19 (mediator complex subunit 19)", "siRNA no.": 2, "GFP, % of control": 67.2, "viability (ATP), % of control": 70.6, "outcome": "inactive"}
{"gene symbol": "Med19 (mediator complex subunit 19)", "siRNA no.": 3, "GFP, % of control": 83.2, "viability (ATP), % of control": 85.3, "outcome": "inactive"}
{"gene symbol": "Tas2r144 (taste receptor, type 2, member 144)", "siRNA no.": 1, "GFP, % of control": 75.9, "viability (ATP), % of control": 69.8, "outcome": "inactive"}
{"gene symbol": "Tas2r144 (taste receptor, type 2, member 144)", "siRNA no.": 2, "GFP, % of control": 50.8, "viability (ATP), % of control": 55.1, "outcome": "inactive"}
{"gene symbol": "Tas2r144 (taste receptor, type 2, member 144)", "siRNA no.": 3, "GFP, % of control": 69.3, "viability (ATP), % of control": 63.4, "outcome": "inactive"}
{"gene symbol": "Fcgrt (Fc fragment of IgG receptor and transporter)", "siRNA no.": 1, "GFP, % of control": 139, "viability (ATP), % of control": 115, "outcome": "active"}
{"gene symbol": "Fcgrt (Fc fragment of IgG receptor and transporter)", "siRNA no.": 2, "GFP, % of control": 136, "viability (ATP), % of control": 80.3, "outcome": "active"}
{"gene symbol": "Fcgrt (Fc fragment of IgG receptor and transporter)", "siRNA no.": 3, "GFP, % of control": 42.7, "viability (ATP), % of control": 47.4, "outcome": "inactive"}
{"gene symbol": "Or5h19 (olfactory receptor family 5 subfamily H member 19)", "siRNA no.": 1, "GFP, % of control": 83.6, "viability (ATP), % of control": 99.8, "outcome": "inactive"}
{"gene symbol": "Or5h19 (olfactory receptor family 5 subfamily H member 19)", "siRNA no.": 2, "GFP, % of control": 71.7, "viability (ATP), % of control": 74, "outcome": "inactive"}
{"gene symbol": "Or5h19 (olfactory receptor family 5 subfamily H member 19)", "siRNA no.": 3, "GFP, % of control": 52.8, "viability (ATP), % of control": 91.9, "outcome": "inactive"}
{"gene symbol": "Col26a1 (collagen, type XXVI, alpha 1)", "siRNA no.": 1, "GFP, % of control": 60.3, "viability (ATP), % of control": 70.4, "outcome": "inactive"}
{"gene symbol": "Col26a1 (collagen, type XXVI, alpha 1)", "siRNA no.": 2, "GFP, % of control": 109, "viability (ATP), % of control": 82.1, "outcome": "inactive"}
{"gene symbol": "Col26a1 (collagen, type XXVI, alpha 1)", "siRNA no.": 3, "GFP, % of control": 73.8, "viability (ATP), % of control": 76.7, "outcome": "inactive"}
